Measurements reported in PubChem BioAssay AID1259254 (NCATS, 2017).
Shown is a random part of about 59,000 reagents. About 1,550 of all reagents (2.6%) were called active. 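G2 share is only a proxy for re-replication; each gene was hit by three separate siRNAs, and active genes were retested.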 Unmarked entries are inactive. Reagents against one gene are numbered here. Further read-outs or replicates are left out here. The record does not give: the amount of reagent.

- Assay: 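Gene knock-downs that lead to re-replication, shown by excess G2 DNA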 (primary screen)
- Cells: human HCT116 colorectal cancer cells
- Knock-down reagent: single siRNA against human genes
- Duration: 3 days
- Read-out: 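Nuclei stained with Hoechst and imaged; cell-cycle phase assigned by DNA content; G2 share scaled per plate, non-targeting siRNA 0%, GMNN siRNA 100%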
- Reading the numbers: G2 robust z-score and G2 cells, % of GMNN control: higher = more G2 cells, more excess DNA replication
- Call rule: 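An siRNA counts as active if its G2 robust z-score lies at least 5 MADs above the screen median; here such calls match roughly 38% of GMNN control or more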

| target | reagent no. | G2 robust z-score | G2 cells, % of GMNN control |
| --- | --- | --- | --- |
| AKR1C2 (GeneID 1646) | 1 | -0.836 | -2.92 |
| AKR1C2 (GeneID 1646) | 2 | 4.5 | 34.6 |
| AKR1C2 (GeneID 1646) | 3 | 1.41 | 12.9 |
| CAVIN1 (GeneID 284119) | 1 | -1.05 | -4.4 |
| CAVIN1 (GeneID 284119) | 2 | -0.598 | -1.24 |
| CAVIN1 (GeneID 284119) | 3 | -1.21 | -5.54 |
| RSRP1 (GeneID 57035) | 1 | 0.375 | 5.61 |
| RSRP1 (GeneID 57035) | 2 | 3.1 | 24.8 |
| RSRP1 (GeneID 57035) | 3 | 0.2 | 4.38 |
| ANKRD13C (GeneID 81573) | 1 | -0.342 | 0.561 |
| ANKRD13C (GeneID 81573) | 2 | -0.148 | 1.92 |
| ANKRD13C (GeneID 81573) | 3 | -0.6 | -1.26 |
| LRRK1 (GeneID 79705) | 1 | 5.05 (active) | 38.5 |
| LRRK1 (GeneID 79705) | 2 | 1.93 | 16.5 |
| LRRK1 (GeneID 79705) | 3 | 1.58 | 14.1 |
| EEF1E1 (GeneID 9521) | 1 | -1.34 | -6.48 |
| EEF1E1 (GeneID 9521) | 2 | -0.383 | 0.275 |
| EEF1E1 (GeneID 9521) | 3 | -0.916 | -3.48 |
| ACTR1A (GeneID 10121) | 1 | 3.07 | 24.5 |
| ACTR1A (GeneID 10121) | 2 | -0.782 | -2.54 |
| ACTR1A (GeneID 10121) | 3 | -0.719 | -2.09 |
| RGS12 (GeneID 6002) | 1 | -0.47 | -0.341 |
| RGS12 (GeneID 6002) | 2 | -0.0965 | 2.29 |
| RGS12 (GeneID 6002) | 3 | 0.159 | 4.09 |
| GZMK (GeneID 3003) | 1 | -0.999 | -4.06 |
| GZMK (GeneID 3003) | 2 | -1 | -4.07 |
| GZMK (GeneID 3003) | 3 | -0.782 | -2.53 |
| SERPINF1 (GeneID 5176) | 1 | -0.569 | -1.04 |
| SERPINF1 (GeneID 5176) | 2 | 0.75 | 8.25 |
| SERPINF1 (GeneID 5176) | 3 | -0.747 | -2.29 |
| NOTCH4 (GeneID 4855) | 1 | -0.647 | -1.59 |
| NOTCH4 (GeneID 4855) | 2 | 0.5 | 6.48 |
| NOTCH4 (GeneID 4855) | 3 | 4.24 | 32.8 |
| KIAA1328 (GeneID 57536) | 1 | 1.58 | 14.1 |
| KIAA1328 (GeneID 57536) | 2 | -0.121 | 2.12 |
| KIAA1328 (GeneID 57536) | 3 | -0.869 | -3.15 |
| ADAM12 (GeneID 8038) | 1 | -0.458 | -0.256 |
| ADAM12 (GeneID 8038) | 2 | 0.48 | 6.34 |
| ADAM12 (GeneID 8038) | 3 | -0.672 | -1.76 |
| FIGNL1 (GeneID 63979) | 1 | -0.536 | -0.801 |
| FIGNL1 (GeneID 63979) | 2 | 0.58 | 7.05 |
| FIGNL1 (GeneID 63979) | 3 | -0.892 | -3.31 |
| SRL (GeneID 6345) | 1 | -0.839 | -2.93 |
| SRL (GeneID 6345) | 2 | -1.01 | -4.13 |
| SRL (GeneID 6345) | 3 | -0.287 | 0.95 |
| PINX1 (GeneID 54984) | 1 | -0.399 | 0.162 |
| PINX1 (GeneID 54984) | 2 | -0.311 | 0.781 |
| PINX1 (GeneID 54984) | 3 | 2.3 | 19.2 |
| NEFM (GeneID 4741) | 1 | -0.944 | -3.68 |
| NEFM (GeneID 4741) | 2 | -0.528 | -0.746 |
| NEFM (GeneID 4741) | 3 | -1.27 | -5.94 |
| SNTA1 (GeneID 6640) | 1 | 4.43 | 34.1 |
| SNTA1 (GeneID 6640) | 2 | 0.0836 | 3.56 |
| SNTA1 (GeneID 6640) | 3 | -1.32 | -6.35 |
| KIRREL1 (GeneID 55243) | 1 | 1.16 | 11.1 |
| KIRREL1 (GeneID 55243) | 2 | -0.709 | -2.02 |
| KIRREL1 (GeneID 55243) | 3 | 0.708 | 7.95 |
| TTC32 (GeneID 130502) | 1 | 0.164 | 4.12 |
| TTC32 (GeneID 130502) | 2 | -0.1 | 2.26 |
| TTC32 (GeneID 130502) | 3 | 0.0192 | 3.1 |
| PLK4 (GeneID 10733) | 1 | 3.09 | 24.7 |
| PLK4 (GeneID 10733) | 2 | 3.08 | 24.6 |
| PLK4 (GeneID 10733) | 3 | 3.4 | 26.9 |
| FOSL2 (GeneID 2355) | 1 | 0.127 | 3.86 |
| FOSL2 (GeneID 2355) | 2 | 1.85 | 16 |
| FOSL2 (GeneID 2355) | 3 | 0.948 | 9.64 |
| C1orf116 (GeneID 79098) | 1 | -0.0502 | 2.61 |
| C1orf116 (GeneID 79098) | 2 | -0.502 | -0.565 |
| C1orf116 (GeneID 79098) | 3 | 3.64 | 28.6 |
| DCAF12L2 (GeneID 340578) | 1 | 0.0373 | 3.23 |
| DCAF12L2 (GeneID 340578) | 2 | -0.531 | -0.769 |
| DCAF12L2 (GeneID 340578) | 3 | -1.24 | -5.76 |
| FAAP20 (GeneID 199990) | 1 | 0.0316 | 3.19 |
| FAAP20 (GeneID 199990) | 2 | -0.638 | -1.52 |
| FAAP20 (GeneID 199990) | 3 | 1.06 | 10.4 |
| BIRC5 (GeneID 332) | 1 | 9.72 (active) | 71.4 |
| BIRC5 (GeneID 332) | 2 | 12.5 (active) | 90.6 |
| BIRC5 (GeneID 332) | 3 | 14.7 (active) | 107 |
| GTF2H3 (GeneID 2967) | 1 | 0.0765 | 3.51 |
| GTF2H3 (GeneID 2967) | 2 | 4.37 | 33.7 |
| GTF2H3 (GeneID 2967) | 3 | 0.18 | 4.23 |
| ACAA1 (GeneID 30) | 1 | -0.389 | 0.229 |
| ACAA1 (GeneID 30) | 2 | -0.297 | 0.875 |
| ACAA1 (GeneID 30) | 3 | -0.663 | -1.7 |
| ATP5F1A (GeneID 498) | 1 | 1.2 | 11.4 |
| ATP5F1A (GeneID 498) | 2 | -1.46 | -7.3 |
| ATP5F1A (GeneID 498) | 3 | -0.718 | -2.09 |

In a second layout: results already given
{"target":"KIRREL1 (GeneID 55243)","reagent no.":2,"G2 robust z-score":-0.709,"G2 cells, % of GMNN control":-2.02}
{"target":"KIRREL1 (GeneID 55243)","reagent no.":3,"G2 robust z-score":0.708,"G2 cells, % of GMNN control":7.95}
{"target":"TTC32 (GeneID 130502)","reagent no.":1,"G2 robust z-score":0.164,"G2 cells, % of GMNN control":4.12}
{"target":"TTC32 (GeneID 130502)","reagent no.":2,"G2 robust z-score":-0.1,"G2 cells, % of GMNN control":2.26}
{"target":"TTC32 (GeneID 130502)","reagent no.":3,"G2 robust z-score":0.0192,"G2 cells, % of GMNN control":3.1}
{"target":"PLK4 (GeneID 10733)","reagent no.":1,"G2 robust z-score":3.09,"G2 cells, % of GMNN control":24.7}
{"target":"PLK4 (GeneID 10733)","reagent no.":2,"G2 robust z-score":3.08,"G2 cells, % of GMNN control":24.6}
{"target":"PLK4 (GeneID 10733)","reagent no.":3,"G2 robust z-score":3.4,"G2 cells, % of GMNN control":26.9}
{"target":"FOSL2 (GeneID 2355)","reagent no.":1,"G2 robust z-score":0.127,"G2 cells, % of GMNN control":3.86}
{"target":"FOSL2 (GeneID 2355)","reagent no.":2,"G2 robust z-score":1.85,"G2 cells, % of GMNN control":16}
{"target":"FOSL2 (GeneID 2355)","reagent no.":3,"G2 robust z-score":0.948,"G2 cells, % of GMNN control":9.64}
{"target":"C1orf116 (GeneID 79098)","reagent no.":1,"G2 robust z-score":-0.0502,"G2 cells, % of GMNN control":2.61}
{"target":"C1orf116 (GeneID 79098)","reagent no.":2,"G2 robust z-score":-0.502,"G2 cells, % of GMNN control":-0.565}
